Assay results as given in patent publication US20110098492A1, “CLEANING COMPOSITIONS CONTAINING MID-RANGE ALKOXYLATES” (priority 2008, published 2011).

System: microorganisms derived from activated sludge
Assay: OECD 301 F biodegradation (manometric respirometry)
Conditions: aerobic

C9(BO)1(EO)7 [Example 9]
OECD 301F Biodegradation, %: 73%
